# Percent effect of library compounds

Sequences of proteins named here, by UniProt entry; tags and fusion partners are left off. Residues count along the entry.
UniProt P9WFT3, whole entry: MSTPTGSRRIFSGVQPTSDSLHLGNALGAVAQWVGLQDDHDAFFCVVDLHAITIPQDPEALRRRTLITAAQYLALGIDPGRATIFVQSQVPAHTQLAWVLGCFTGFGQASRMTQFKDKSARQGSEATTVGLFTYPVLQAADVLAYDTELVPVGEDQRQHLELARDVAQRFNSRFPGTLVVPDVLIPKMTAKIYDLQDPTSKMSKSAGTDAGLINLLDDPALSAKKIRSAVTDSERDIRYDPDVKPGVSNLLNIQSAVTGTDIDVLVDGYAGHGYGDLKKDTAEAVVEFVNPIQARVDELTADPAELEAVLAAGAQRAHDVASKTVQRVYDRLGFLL
UniProt I6X8D2, whole entry: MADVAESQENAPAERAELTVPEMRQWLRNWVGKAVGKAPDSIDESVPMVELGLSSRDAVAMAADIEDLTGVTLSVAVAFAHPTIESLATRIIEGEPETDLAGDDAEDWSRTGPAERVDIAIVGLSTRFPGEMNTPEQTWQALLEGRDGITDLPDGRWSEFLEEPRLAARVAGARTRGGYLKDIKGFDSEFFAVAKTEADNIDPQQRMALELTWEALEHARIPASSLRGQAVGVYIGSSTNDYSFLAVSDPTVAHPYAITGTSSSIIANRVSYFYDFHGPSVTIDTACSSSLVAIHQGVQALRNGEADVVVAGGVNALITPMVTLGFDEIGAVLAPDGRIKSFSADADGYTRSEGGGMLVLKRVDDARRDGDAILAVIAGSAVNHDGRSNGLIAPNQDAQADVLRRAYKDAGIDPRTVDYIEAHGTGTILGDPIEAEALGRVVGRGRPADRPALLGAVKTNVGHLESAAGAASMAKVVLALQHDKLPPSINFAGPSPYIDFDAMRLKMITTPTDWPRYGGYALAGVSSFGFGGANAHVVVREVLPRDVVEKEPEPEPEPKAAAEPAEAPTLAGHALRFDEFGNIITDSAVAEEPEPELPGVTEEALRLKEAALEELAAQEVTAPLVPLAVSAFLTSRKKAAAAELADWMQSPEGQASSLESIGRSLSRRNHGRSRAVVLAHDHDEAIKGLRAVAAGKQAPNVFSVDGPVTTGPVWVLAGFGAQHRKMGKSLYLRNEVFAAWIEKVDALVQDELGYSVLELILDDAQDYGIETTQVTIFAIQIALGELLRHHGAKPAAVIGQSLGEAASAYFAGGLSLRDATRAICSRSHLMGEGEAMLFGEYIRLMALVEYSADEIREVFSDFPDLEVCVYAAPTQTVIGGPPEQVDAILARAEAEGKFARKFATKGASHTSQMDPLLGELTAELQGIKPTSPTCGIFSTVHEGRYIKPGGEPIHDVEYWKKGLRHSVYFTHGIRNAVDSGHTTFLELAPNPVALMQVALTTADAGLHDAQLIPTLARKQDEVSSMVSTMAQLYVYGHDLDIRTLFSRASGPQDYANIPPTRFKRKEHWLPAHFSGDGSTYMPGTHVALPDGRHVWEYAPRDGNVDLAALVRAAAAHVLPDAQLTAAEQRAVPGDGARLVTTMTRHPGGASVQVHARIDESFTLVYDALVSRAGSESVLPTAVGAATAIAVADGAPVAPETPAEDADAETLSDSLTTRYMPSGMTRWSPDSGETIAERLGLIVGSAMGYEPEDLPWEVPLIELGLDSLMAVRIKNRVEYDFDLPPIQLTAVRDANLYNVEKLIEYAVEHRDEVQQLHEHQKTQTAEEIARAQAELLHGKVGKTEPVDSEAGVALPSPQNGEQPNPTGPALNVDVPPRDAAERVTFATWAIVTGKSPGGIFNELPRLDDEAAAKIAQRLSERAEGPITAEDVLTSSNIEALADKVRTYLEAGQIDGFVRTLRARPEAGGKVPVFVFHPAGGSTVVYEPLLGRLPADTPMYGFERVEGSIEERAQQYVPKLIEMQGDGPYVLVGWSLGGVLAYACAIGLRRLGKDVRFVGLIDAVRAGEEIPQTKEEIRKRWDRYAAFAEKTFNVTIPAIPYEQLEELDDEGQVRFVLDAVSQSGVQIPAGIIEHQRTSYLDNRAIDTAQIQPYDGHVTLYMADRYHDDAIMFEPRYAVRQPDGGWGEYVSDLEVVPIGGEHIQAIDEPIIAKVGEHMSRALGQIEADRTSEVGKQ
UniProt A4I591, 1-473: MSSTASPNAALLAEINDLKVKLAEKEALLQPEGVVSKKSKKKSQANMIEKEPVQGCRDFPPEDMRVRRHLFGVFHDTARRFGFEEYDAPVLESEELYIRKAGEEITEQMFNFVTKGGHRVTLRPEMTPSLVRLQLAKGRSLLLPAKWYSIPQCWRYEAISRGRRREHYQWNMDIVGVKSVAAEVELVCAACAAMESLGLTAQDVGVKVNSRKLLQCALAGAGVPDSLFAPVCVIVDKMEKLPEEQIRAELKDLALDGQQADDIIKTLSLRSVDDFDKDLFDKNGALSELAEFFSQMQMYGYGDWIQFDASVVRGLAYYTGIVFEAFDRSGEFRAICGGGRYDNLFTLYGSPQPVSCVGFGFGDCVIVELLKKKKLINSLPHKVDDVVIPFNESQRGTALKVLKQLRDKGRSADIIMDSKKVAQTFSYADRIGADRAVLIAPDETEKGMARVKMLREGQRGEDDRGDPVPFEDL
UniProt Q8IDJ8, 1-583: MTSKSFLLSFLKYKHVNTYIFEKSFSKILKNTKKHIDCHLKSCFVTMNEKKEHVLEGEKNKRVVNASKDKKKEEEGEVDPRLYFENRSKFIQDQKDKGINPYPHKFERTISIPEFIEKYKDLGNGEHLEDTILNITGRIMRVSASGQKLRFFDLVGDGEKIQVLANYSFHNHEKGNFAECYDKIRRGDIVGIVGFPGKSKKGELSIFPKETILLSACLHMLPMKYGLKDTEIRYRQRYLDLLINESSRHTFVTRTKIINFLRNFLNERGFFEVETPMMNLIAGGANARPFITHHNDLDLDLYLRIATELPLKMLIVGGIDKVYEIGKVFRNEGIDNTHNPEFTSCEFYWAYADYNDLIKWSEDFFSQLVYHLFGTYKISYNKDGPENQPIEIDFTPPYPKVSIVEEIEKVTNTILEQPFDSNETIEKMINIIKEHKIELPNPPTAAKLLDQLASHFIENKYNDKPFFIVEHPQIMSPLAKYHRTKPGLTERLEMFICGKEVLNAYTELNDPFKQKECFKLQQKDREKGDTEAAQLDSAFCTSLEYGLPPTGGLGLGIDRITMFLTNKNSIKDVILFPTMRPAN

Each number is a percent effect as filed. How 0% and 100% were set is not recorded. Most values in the screen are low, and negative values occur. This is an unselected part of the compounds tested. A dash means the value is not listed here; it may have been measured.

MtTrpRS: 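Tryptophan-tRNA ligase, Mycobacterium tuberculosis (UniProt P9WFT3). Enzyme assay of tryptophanyl-tRNA synthetase; the read-out is not stated. Concentration: 10 µM. Higher most likely means stronger inhibition; the record gives no direction and few retests gave an IC50. About 65,000 compounds were tested under these conditions; 0.098% (about 64) showed 50% or more at least once.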
Pks13 thioesterase: 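Polyketide synthase Pks13, Mycobacterium tuberculosis (UniProt I6X8D2). Enzyme assay of the thioesterase domain of polyketide synthase 13; the read-out is not stated. Compounds at 30 µM. Higher reads as stronger inhibition (inferred from which compounds were picked for retests). About 67,000 compounds were tested under these conditions; 0.46% (about 300) showed 50% or more at least once.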
LiHisRS: 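Enzyme assay of histidyl-tRNA synthetase; the read-out is not stated. Target: Histidine-tRNA ligase, Leishmania infantum (UniProt A4I591). Concentration: 30 µM. The record gives no direction; compounds that gave an IC50 in retests scored well above the rest, so higher reads as stronger inhibition. The assay is labelled LdHisRS but filed under L. infantum. Of about 69,000 compounds tested this way, about 410 (0.6%) reached 50% or more in at least one test.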
PfKRS1: 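Lysine-tRNA ligase, Plasmodium falciparum 3D7 (UniProt Q8IDJ8). Enzyme assay of the cytosolic lysyl-tRNA synthetase in 384-well plates, read by luminescence. Tested at 30 µM. Higher reads as stronger inhibition, judged from the few compounds that gave an IC50. Size under these conditions: about 69,000 compounds, about 49 of them at 50% or above in at least one test.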

SMILES,MtTrpRS,Pks13 thioesterase,LiHisRS,PfKRS1
CNc1ccnc(N2C[C@@H](C)[C@](O)(C3CC3)C2)n1,-0.3636%,-56.2%,5.051%,0.6948%
CCc1nc(CNC2CCN(c3ccc(OC)cc3)CC2)cs1,2.055%,-15.39%,16.67%,4.965%
COc1ccc(-c2cnc(N(C)C)nc2C2CN(C(C)=O)CCO2)cc1 (centres undefined),4.235%,-7.442%,8.966%,1.732%
O=C(c1cnc(-c2noc3cc(N4CCCC4)ccc23)s1)N1CCCC1,1.841%,-28.87%,17.09%,5.598%
COc1cccc(CNC(=O)C(C)n2ccnc2C(C)C)c1OC (centres undefined),2.315%,16.81%,12.5%,3.822%
CN(C)c1nccc(C2CN(c3cnccn3)CCO2)n1 (centres undefined),6.914%,-2.811%,9.396%,-1.304%
O=C(Nc1ccccc1)[C@H]1C[C@@H]2CN(S(=O)(=O)c3ccccc3)C[C@H]1O2,1.245%,3.03%,15.38%,1.199%
CC(C)(C)OC(=O)N1CC(=O)N(Cc2ccco2)CC(O)C1 (centres undefined),-,4.952%,-2.041%,2.325%
CCc1nn(-c2cc(Oc3ccccc3)nc(C)n2)c(N)c1C#N,-2.692%,-2.064%,3.448%,-2.447%
Cc1cc(C)n(C2CCCN(C(=O)Cc3csc(C)n3)C2)n1 (centres undefined),1.652%,-42.73%,5.618%,1.979%
c1coc(CN2CC[C@@H]3O[C@@H](COCC4CCOCC4)CC[C@@H]32)c1,2.768%,-5.484%,-22.34%,-21.97%
COC1COC2(CCN(S(=O)(=O)c3ccc(F)cc3)CC2)C1 (centres undefined),6.787%,-41.2%,-6%,-2.393%
Cc1ccc2c(c1C)OCC2NCc1cccc(C#N)c1 (centres undefined),0%,-2.756%,5.479%,2.075%
CNc1ccnc(N(C)Cc2cc(-c3cccs3)n[nH]2)n1,-3.841%,22.92%,13.6%,1.508%
CC(=O)NC1CCCN(C(=O)Nc2cnc3c(cnn3C(C)C)c2)C1 (centres undefined),-3.401%,-3.403%,6.154%,8.047%
CCCn1ncc(C(=O)NC2CCN(C3CCOCC3)CC2)c1C,-3.122%,-13.21%,6.452%,2.773%
CS(=O)(=O)CCN1CCCC1c1noc(C2CC2)n1 (centres undefined),-7.335%,-8.601%,6.78%,0.7893%
COC[C@H]1CCC[C@]12CN(S(=O)(=O)c1cccs1)CCO2,-1.26%,-8.845%,1.709%,0.5961%
COc1nccnc1-c1cc(NC2CCCC2)nc2[nH]ccc12,2.982%,37.19%,6.383%,4.592%
COCCCN(C)Cc1nc2c(cnn2C)c(=O)[nH]1,4.386%,-11.85%,31.82%,-3.495%
Cc1cc(N2CCC(C(=O)O)(n3ccc(C(C)C)n3)CC2)nc(N)n1,-4.567%,-3.38%,3.279%,0.07219%
O=S(=O)(c1ccc(C(F)(F)F)cc1)N1CCC(OCc2ccccn2)C1 (centres undefined),3.096%,-89.22%,20.83%,3.777%
CN1CCN(C)C2(CCN(Cc3ccsc3)CC2)C1=O,1.493%,-38.88%,17.43%,-2.832%
O=C(CC1CC1)N1C[C@@H](O)[C@H](N2CCN(c3ccccc3)CC2)C1,24.22%,-21.47%,0%,-1.11%
Cc1ccc(C(=O)Nc2cn[nH]c2)cc1F,-0.6905%,-15.56%,1.786%,0.4872%
COCCN1CC[C@@H](O)[C@@H]1Cc1ccccc1,2.211%,-18.54%,5.825%,3.697%
CCn1c(C2CCCN(C(=O)C(C)(C)OC)C2)nn(CCN(C)C)c1=O (centres undefined),-2.101%,1.227%,15.2%,5.037%
Cc1cc(-n2nc(C3CC3)nc2-c2csnn2)ccn1,-7.121%,-27.49%,9.375%,-0.8079%
CCOCc1ccc(NC(=O)C(C)C)cc1,2.642%,-25.94%,15.87%,-1.751%
NC(=O)c1cc2c(nc1N1C[C@H]3OC(=O)N(C4CCCC4)[C@H]3C1)CCC2,6.461%,5.787%,32.65%,6.549%
O=C(NCCN1CCCC1)c1nc2c(o1)CN(C(=O)c1cccnc1)C2,-2.116%,-23.9%,28.57%,10.28%
c1cncc(CN2CCc3ncnc(C4CCOC4)c3CC2)c1 (centres undefined),0.3524%,-9.186%,10.95%,1.966%
Cc1nccn1CC1CCCN1S(=O)(=O)Cc1ccc(F)cc1 (centres undefined),-4.023%,-4.119%,3.571%,-0.6889%

The last 2 entries again:

| SMILES | MtTrpRS | Pks13 thioesterase | LiHisRS | PfKRS1 |
|---|---|---|---|---|
| `c1cncc(CN2CCc3ncnc(C4CCOC4)c3CC2)c1` (centres undefined) | 0.3524% | -9.186% | 10.95% | 1.966% |
| `Cc1nccn1CC1CCCN1S(=O)(=O)Cc1ccc(F)cc1` (centres undefined) | -4.023% | -4.119% | 3.571% | -0.6889% |

Source: ChEMBL document CHEMBL3988442, “University of Dundee, Small-Polar-MMV Screening Library” (2021).